± gives the standard deviation of the averaged measurements. Small differences around the control level are noise.
Tests used:
Assay in all cases: level (log10 ratio to DMSO vehicle control); higher = higher biomarker level / cell amount than vehicle control
[1] = compound: C=C(C)C(=O)OCC(F)(F)C(F)(F)C(F)(F)F [2,2,3,3,4,4,4-Heptafluorobutyl methacrylate]; details: 2200 nM; in DMSO
Method: (§1)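 BioMAP Diversity Plus panel of 12 human primary cell co-culture systems (3C, 4H, LPS, SAg, BT, BF4T, BE3C, CASM3C, HDF3CGF, KF3CT, MyoF, Mphg). Compounds were added 1 h before stimulation and left for 24 h (MyoF 48 h; BT 72 h for soluble read-outs or 6 d for IgG). Biomarkers were read by ELISA, cytotoxicity by SRB, PBMC viability and proliferation by Alamar Blue. Each well value was divided by the mean of 8 DMSO control wells on the same plate and log10 transformed; duplicate blinded samples were tested at 4 concentrations.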

[2] = compound: C=CC(=O)OCC(F)(F)C(F)(F)C(F)(F)C(F)(F)COC(=O)C=C [1H,1H,6H,6H-Perfluorohexane-1,6-diol diacrylate]; details: 2200 nM; in DMSO
Method: as §1

[3] = compound: FC(F)(F)C(F)(F)C(F)(F)C(F)(F)C(F)(F)C(F)(F)C(F)(F)CCI [1-Iodo-1H,1H,2H,2H-perfluorononane]; details: in DMSO
Method: as §1

[4] = compound: FC(F)(F)C(F)(F)C(F)(F)C(F)(F)C(F)(F)C(F)(F)C(F)(F)I [1-Iodopentadecafluoroheptane]; details: in DMSO
Method: as §1

[5] = compound: FC(F)C(F)(F)COCC1CO1 [((2,2,3,3-Tetrafluoropropoxy)methyl)oxirane]; details: 2200 nM; in DMSO
Method: as §1

[6] = compound: NC(=O)C(F)(F)C(F)(F)C(F)(F)C(F)(F)C(F)(F)C(F)(F)C(F)(F)F [Perfluorooctanamide]; details: 2200 nM; in DMSO
Method: as §1

[7] = compound: O=C(O)C(F)(F)C(F)(F)C(F)(F)C(F)(F)C(F)(F)C(F)(F)C(F)(F)C(F)(F)C(F)(F)C(F)(F)F [Perfluoroundecanoic acid]; details: in DMSO
Method: as §1

[8] = compound: O=C(O)C(F)(F)C(F)(F)C(F)(F)C(F)(F)C(F)(F)C(F)(F)C(F)(F)C(F)F [9-H-Perfluorononanoic acid]; details: 2200 nM; in DMSO
Method: as §1

[9] = compound: O=C(O)C(F)(F)C(F)(F)C(F)(F)F [Perfluorobutanoic acid]; details: 2200 nM; in DMSO
Method: as §1

[10] = compound: O=C(O)C(F)(F)C(F)(F)F [Perfluoropropanoic acid]; details: 2200 nM; in DMSO
Method: as §1

[11] = compound: O=C(O)C(F)(F)C(F)(F)OC(F)(F)F [Perfluoro-3-methoxypropanoic acid]; details: 2200 nM; in DMSO
Method: as §1

[12] = compound: O=C(O)C(F)(F)OC(F)(F)C(F)(F)OC(F)(F)C(=O)O [Perfluoro-3,6-dioxaoctane-1,8-dioic acid]; details: 2200 nM; in DMSO
Method: as §1

[13] = compound: O=C(O)C(F)(F)OC(F)(F)C(F)(F)OC(F)(F)C(F)(F)C(F)(F)C(F)(F)F [Perfluoro-3,6-dioxadecanoic acid]; details: 2200 nM; in DMSO
Method: as §1

[14] = compound: O=C(O)C=CC(F)(C(F)(F)F)C(F)(F)F [3-(Perfluoroisopropyl)-2-propenoic acid]; details: in DMSO
Method: as §1

[15] = compound: O=P(O)(O)CCC(F)(F)C(F)(F)C(F)(F)C(F)(F)C(F)(F)C(F)(F)C(F)(F)C(F)(F)F [((Perfluorooctyl)ethyl)phosphonic acid]; details: 2200 nM; in DMSO
Method: as §1

[16] = compound: O=S(=O)(Cl)C(F)(F)C(F)(F)C(F)(F)C(F)(F)C(F)(F)C(F)(F)C(F)(F)C(F)(F)F [Perfluoro-1-octanesulfonyl chloride]; details: 2200 nM; in DMSO
Method: as §1

[17] = compound: OCC(F)(F)C(F)(F)C(F)(F)C(F)(F)C(F)(F)C(F)(F)C(F)(F)C(F)(F)C(F)(F)C(F)(F)C(F)(F)F [11:1 Fluorotelomer alcohol]; details: in DMSO
Method: as §1

[18] = compound: OCCC(F)(F)C(F)(F)C(F)(F)C(F)(F)C(F)(F)C(F)(F)C(F)(F)C(F)(F)F [8:2 Fluorotelomer alcohol]; details: 2200 nM; in DMSO
Method: as §1

| Test System | level (log10) [1] | level (log10) [2] | level (log10) ([3]; 740 nM) | level (log10) ([3]; 2200 nM) | level (log10) ([3]; 6700 nM) | level (log10) ([3]; 20000 nM) | level (log10) ([4]; 740 nM) | level (log10) ([4]; 2200 nM) | level (log10) ([4]; 6700 nM) | level (log10) ([4]; 20000 nM) | level (log10) [5] | level (log10) [6] | level (log10) ([7]; 740 nM) | level (log10) ([7]; 2200 nM) | level (log10) [8] | level (log10) [9] | level (log10) [10] | level (log10) [11] | level (log10) [12] | level (log10) [13] | level (log10) ([14]; 2200 nM) | level (log10) ([14]; 6700 nM) | level (log10) ([14]; 20000 nM) | level (log10) ([14]; 60000 nM) | level (log10) [15] | level (log10) [16] | level (log10) ([17]; 370 nM) | level (log10) ([17]; 1100 nM) | level (log10) ([17]; 3300 nM) | level (log10) ([17]; 10000 nM) | level (log10) [18] |
| --- | --- | --- | --- | --- | --- | --- | --- | --- | --- | --- | --- | --- | --- | --- | --- | --- | --- | --- | --- | --- | --- | --- | --- | --- | --- | --- | --- | --- | --- | --- | --- |
| BF4T:tPA | 0.017 ± 0.059 | 0.013 ± 0.071 | 0.0085 ± 0.0092 | -0.003 ± 0.017 | 0.0185 ± 0.0064 | -0.0135 ± 0.0064 | -0.014 ± 0.0014 | -0.007 ± 0.018 | 0.022 ± 0.025 | -0.0085 ± 0.016 | 0.031 ± 0.038 | 0.005 ± 0.017 | -0.0105 ± 0.00071 | -0.0205 ± 0.011 | -0.045 ± 0.028 | 0.022 ± 0.031 | -0.002 ± 0.018 | 0.035 ± 0.041 | 0.032 ± 0.042 | -0.0225 ± 0.036 | 0.0215 ± 0.071 | -0.004 ± 0.037 | -0.0055 ± 0.022 | 0.03 ± 0.024 | 0.0135 ± 0.057 | -0.0285 ± 0.012 | -0.0005 ± 0.037 | 0.0015 ± 0.0092 | -0.003 ± 0.0071 | 0.026 ± 0.024 | -0.0495 ± 0.021 |
| HDF3CGF:CD54/ICAM-1 | -0.01 ± 0.0071 | -0.0505 ± 0.0092 | 0.0205 ± 0.015 | 0.001 ± 0.016 | -0.0105 ± 0.016 | 0.0095 ± 0.0035 | -0.006 ± 0.021 | -0.0075 ± 0.019 | -0.0025 ± 0.0078 | -0.0075 ± 0.0078 | 0.007 ± 0.0099 | -0.0005 ± 0.0064 | -0.018 ± 0.0042 | -0.016 ± 0.018 | -0.0075 ± 0.013 | 0.0025 ± 0.019 | -0.0115 ± 0.015 | 0.0055 ± 0.005 | -0.0025 ± 0.019 | 0.001 ± 0.013 | -0.0145 ± 0.0064 | -0.0105 ± 0.005 | -0.0055 ± 0.015 | -0.024 ± 0.016 | 0.001 ± 0.021 | 0.0425 ± 0.039 | -0.0055 ± 0.00071 | 0.001 ± 0.0071 | -0.0075 ± 0.021 | -0.012 ± 0.0014 | 0.0315 ± 0.016 |
| KF3CT:CXCL10/IP-10 | 0.001 ± 0.0071 | -0.01 ± 0.0085 | 0.0005 ± 0.00071 | -0.0015 ± 0.0078 | -0.0065 ± 0.005 | -0.0235 ± 0.0092 | 0.001 ± 0.0028 | -0.0025 ± 0.005 | -0.005 ± 0.014 | -0.0085 ± 0.00071 | 0.0035 ± 0.011 | 0.035 ± 0.061 | 0.006 ± 0.0014 | -0.008 ± 0.0057 | -0.0005 ± 0.0064 | 0.004 ± 0.0085 | 0.0095 ± 0.013 | 0.02 ± 0.028 | 0.0145 ± 0.021 | -0.0095 ± 0.00071 | 0.007 ± 0.047 | 0.0105 ± 0.035 | 0.0075 ± 0.032 | 0.0125 ± 0.023 | 0.0145 ± 0.03 | -0.0055 ± 0.00071 | -0.0005 ± 0.0035 | 0.003 ± 0.0042 | -0.002 ± 0.0057 | 0.0085 ± 0.0035 | -0.011 ± 0.02 |

— the supplement of paper PMC10331698
